This is one part of the list.

The target of the experiment is T1, OsSMF1 (Oryza sativa, UniProt Q6ZLB0 1-436).
T1 sequence: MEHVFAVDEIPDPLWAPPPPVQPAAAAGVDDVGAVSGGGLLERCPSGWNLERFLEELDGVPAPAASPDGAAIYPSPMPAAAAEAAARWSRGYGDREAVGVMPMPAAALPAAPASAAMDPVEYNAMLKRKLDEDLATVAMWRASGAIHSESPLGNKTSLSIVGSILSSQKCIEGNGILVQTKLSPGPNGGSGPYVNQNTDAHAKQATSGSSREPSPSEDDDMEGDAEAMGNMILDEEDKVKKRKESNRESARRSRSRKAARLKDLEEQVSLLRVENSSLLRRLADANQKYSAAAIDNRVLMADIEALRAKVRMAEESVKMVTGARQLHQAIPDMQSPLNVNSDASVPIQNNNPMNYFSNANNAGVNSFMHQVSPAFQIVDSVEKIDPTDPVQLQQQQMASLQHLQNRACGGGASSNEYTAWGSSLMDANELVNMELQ
The experiment is described as follows: protein-binding microarray (RPBM); PBS, 2% BSA, 51.3 ng/ul salmon testes DNA, 50 uM zinc acetate, 200 nM TF, 25 C, 1 h; high values mean tight binding. Particulars: protein: recombinant; tags: N-terminal polyhistidine and DsRed monomer fusion (pET32a); chain copies: 2; label: CyDye5-dUTP incorporated in the synthesized complementary strand; 3' TTTTT single-stranded linker to array surface; dsDNA, one strand shown. Put shortly: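 Per-feature fluorescence intensity (arbitrary units), read on an Axon 4000B scanner, is the binding signal. Transcription factors carrying an N-terminal polyhistidine tag and DsRed fusion were expressed in E. coli BL21-CodonPlus and purified on Ni–NTA. A custom Agilent array, made double-stranded by primer extension with Cy5-dUTP and blocked with 2% BSA, was incubated with 200 nM protein in PBS, 2% BSA, salmon testes DNA and 50 µM zinc acetate at 25 °C for 1 h and then washed.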
Turning to “CTTCCATCTGAGTCGTCCACGTGGCTCCACACGCGTTCCCCGGAGTCACCTAGTGCAG”, the binding signal was 8720 fluorescence intensity (a.u.).

In the case of “GGCCACCTAACCCACCACACGTGGCAACCCGCTGAAGGGGCGGAGTCACCTAGTGCAG”, the binding signal is 14300 fluorescence intensity (a.u.).

For “GGCGACGCGGAAGAGCTCCCACCGCTGCTTGAACGCCTCGCGGAGTCACCTAGTGCAG”, the binding signal is 3640 fluorescence intensity (a.u.).

As for “GCGTCCTATAAATACCCTACACGCGTAGCCATCTTCTGCACGGAGTCACCTAGTGCAG”, the binding signal was 4430 fluorescence intensity (a.u.).

For “TATATGTGGTGTGTGTAACTACGCCGATGTTATGCAGCTACGGAGTCACCTAGTGCAG”, the binding signal was 3370 fluorescence intensity (a.u.).

For the sequence “CGGCGACTCACCCCACCCGCGTTGCCGGCCATCAGATCCGCGGAGTCACCTAGTGCAG”, the binding signal is 3300 fluorescence intensity (a.u.).

Regarding “AATTTATAATTATATATTATAAGCTTGAATTTATTTATACCGGAGTCACCTAGTGCAG”, the binding signal is 35900 fluorescence intensity (a.u.).

Regarding “AACAAACCACATCTGACTGTAAAATATTCAGTCTTCTATTCGGAGTCACCTAGTGCAG”, the binding signal is 3420 fluorescence intensity (a.u.).

Regarding “CTGAACGCGTTCGCACGCCACGGCAGCTGCCATGGCCGCCCGGAGTCACCTAGTGCAG”, the binding signal was 3340 fluorescence intensity (a.u.).

On to “GCGGCGGCGGTGGGTGTCATGCCGGCGAGCACCATGGGCGCGGAGTCACCTAGTGCAG”, for which the binding signal was 3510 fluorescence intensity (a.u.).

Turning to “CTCATCCTCCTCAATCACCGTTCGACTCGCTGCTTCCCCTCGGAGTCACCTAGTGCAG”, the binding signal was 3300 fluorescence intensity (a.u.).

Regarding “ACATGGAGTTGGGCCTACTTCTAGACCCATGGTAAACTAACGGAGTCACCTAGTGCAG”, the binding signal was 20300 fluorescence intensity (a.u.).

For “CCGTGCGCCGCATCGCGTCACGCCACGCCGCGCGGGCCCGCGGAGTCACCTAGTGCAG”, the binding signal was 36200 fluorescence intensity (a.u.).

In the case of “AGGAAAGGTTAATTACGTACGTACACGGGAAGGAGTAACCCGGAGTCACCTAGTGCAG”, the binding signal was 3340 fluorescence intensity (a.u.).

In the case of “ATCTAAACACTAGTAGGAAAAGTTGGCAATTTGGTATTTACGGAGTCACCTAGTGCAG”, the binding signal is 4420 fluorescence intensity (a.u.).

Regarding “ATGCAAAAGATATATAGGCTTGTTTTACTGAAGGTGGCTTCGGAGTCACCTAGTGCAG”, the binding signal is 39100 fluorescence intensity (a.u.).

Turning to “GGCTCCAAATCATCTGCCTTCATTGTCAGGCTTCAGTAATCGGAGTCACCTAGTGCAG”, the binding signal is 3660 fluorescence intensity (a.u.).

On to “ACACCGTCATCCGCGAGCTCGTCTGCGGCCTCCACGACATCGGAGTCACCTAGTGCAG”, for which the binding signal is 3770 fluorescence intensity (a.u.).

As for “TCTTCAAACTTCCAACTTTTCCATCACATCAAAACTTTCCCGGAGTCACCTAGTGCAG”, the binding signal was 3340 fluorescence intensity (a.u.).

In the case of “GTCGCTAGCCTGACCAAACCGCCGCCGTTGATGTGCTGCGCGGAGTCACCTAGTGCAG”, the binding signal is 3390 fluorescence intensity (a.u.).

With “CGCGCTCTCCGCCGCCCGCGCGCTCCCCAAGGGGCAGCAGCGGAGTCACCTAGTGCAG”, the binding signal was 15900 fluorescence intensity (a.u.).

For the sequence “TTATTTTGGTCAGTTGAAGTGTGGAAAATGGTGAAAATCTCGGAGTCACCTAGTGCAG”, the binding signal was 3880 fluorescence intensity (a.u.).

With “ATAAACCGTTACCGTACATCACCGTGTCATCATCTATCGACGGAGTCACCTAGTGCAG”, the binding signal was 5880 fluorescence intensity (a.u.).

For the sequence “GCTGCTCCCGACGGCGCCATCGACTCTGCTGATGTCCTCCCGGAGTCACCTAGTGCAG”, the binding signal was 3410 fluorescence intensity (a.u.).

As to “GTTTTGTGACAGTCGCGTGACCTCGTAGGCTACTACTTGGCGGAGTCACCTAGTGCAG”, the binding signal is 3170 fluorescence intensity (a.u.).

For “ATACCAAGCTCCGATGACCCCGGGCGTGTCGTGTCGGCCGCGGAGTCACCTAGTGCAG”, the binding signal was 4950 fluorescence intensity (a.u.).

In the case of “GCACGTGCGCAAGTCCATGACGTGAGCGCTTCCGGTCATTCGGAGTCACCTAGTGCAG”, the binding signal was 5170 fluorescence intensity (a.u.).

On to “GCCATCTGACAACCAGTAAATGTACTGTCCACCGGGCCAACGGAGTCACCTAGTGCAG”, for which the binding signal is 6470 fluorescence intensity (a.u.).

For “AGAAGAACAGTCTGCACTCTGCACACGTCCCCATCTCCCCCGGAGTCACCTAGTGCAG”, the binding signal was 5940 fluorescence intensity (a.u.).

With “GAGCAAGACACGGATCGTCGCGTCGCCAAGTCACACGCAGCGGAGTCACCTAGTGCAG”, the binding signal is 5870 fluorescence intensity (a.u.).

In the case of “GCGCGCCGTCGTGGCGCTGGCGGCCACCACGGTGGTCACCCGGAGTCACCTAGTGCAG”, the binding signal is 4120 fluorescence intensity (a.u.).

As to “TAGATTCCCTTCCCTTCCACTGACACGTGGGTCCCACCACCGGAGTCACCTAGTGCAG”, the binding signal is 10200 fluorescence intensity (a.u.).

Take “CCTTATTGTCTAGAATGATGTCATCTTTATATGATTGCAACGGAGTCACCTAGTGCAG”: the binding signal was 7480 fluorescence intensity (a.u.).

Regarding “TCCACCCGTGCGTGCGTCCCACTCGCCTCCCACTCACCTCCGGAGTCACCTAGTGCAG”, the binding signal was 3470 fluorescence intensity (a.u.).

Turning to “CCTTAGAAAAGGAAAACGGCCACATCATTCCCCACCTCATCGGAGTCACCTAGTGCAG”, the binding signal is 9190 fluorescence intensity (a.u.).

Regarding “GTCGTCAGTCCGACGCAGTGTTCCATGGGAGCCACGTATGCGGAGTCACCTAGTGCAG”, the binding signal is 6930 fluorescence intensity (a.u.).

Take “CTCTTGCCTCCGCCGTGGCGCCGTGGTGTGGTTTCTTGGTCGGAGTCACCTAGTGCAG”: the binding signal was 4340 fluorescence intensity (a.u.).

For the sequence “GCTCGTCCTCCGCTGCACCACTTGCATCCGCGCGCGCTTCCGGAGTCACCTAGTGCAG”, the binding signal was 3380 fluorescence intensity (a.u.).

With “GGCGGCAGCGACGGCGGAGGCGAGGGAGGGGAGGCGGCGGCGGAGTCACCTAGTGCAG”, the binding signal is 3930 fluorescence intensity (a.u.).

As to “ACCTAGAAATACGCCCGACCCACATGTCAGTGGAATACGGCGGAGTCACCTAGTGCAG”, the binding signal was 3820 fluorescence intensity (a.u.).

As to “AACGCCCGCGATCCACTTGCCACACCACGGCCACCACCACCGGAGTCACCTAGTGCAG”, the binding signal was 3410 fluorescence intensity (a.u.).

Regarding “CTATTGTGAGACACGTGTAGTCTGCTTGTACTCATGAGTTCGGAGTCACCTAGTGCAG”, the binding signal was 11200 fluorescence intensity (a.u.).

With “ATTGGGAGCAATCACGCTGTTGATGAAGATGCTACTGTTGCGGAGTCACCTAGTGCAG”, the binding signal was 3140 fluorescence intensity (a.u.).

Take “GCGCCGCTCCGCCCAAAATTTCCCAAACTCCCGCCCTCCTCGGAGTCACCTAGTGCAG”: the binding signal was 14900 fluorescence intensity (a.u.).

As to “CACGTCGCCCTCGCCACAATCCACCTCACACGCGTGACCTCGGAGTCACCTAGTGCAG”, the binding signal was 4510 fluorescence intensity (a.u.).

Regarding “GACAGTAAGACAGACTGAGTCAGACATGGCGTACTCCCTCCGGAGTCACCTAGTGCAG”, the binding signal was 8440 fluorescence intensity (a.u.).

For “TTACATACCGGTGTACACCTCATAGTTTCATGCTCCCAATCGGAGTCACCTAGTGCAG”, the binding signal was 3660 fluorescence intensity (a.u.).

With “GAGGGAATACAATATAAAATGTTCGCCGATTTTATTTAGACGGAGTCACCTAGTGCAG”, the binding signal is 31000 fluorescence intensity (a.u.).

On to “ATAGGGGTACCTGTGCTAATCTCTGATGCCATCATCGGCACGGAGTCACCTAGTGCAG”, for which the binding signal was 3500 fluorescence intensity (a.u.).

For “CGTGCACGCCCGCGCAGTGTCACGCCATCGCCATCTACTGCGGAGTCACCTAGTGCAG”, the binding signal was 4600 fluorescence intensity (a.u.).

For the sequence “GCCGCTACATTGCACACATCAACACTAGCTTTGCATCCGTCGGAGTCACCTAGTGCAG”, the binding signal was 3470 fluorescence intensity (a.u.).

Take “GACCACCAACCCAGTCACTCACTGGATACGACCAGTCAAACGGAGTCACCTAGTGCAG”: the binding signal is 3170 fluorescence intensity (a.u.).

In the case of “GACAGTCGACACCAATTACGTTGGCAGCGAGACTCATACCCGGAGTCACCTAGTGCAG”, the binding signal is 3710 fluorescence intensity (a.u.).

On to “GGTTTCTTACCAGCCATCCGATAGCCGTGTCACAACTCACCGGAGTCACCTAGTGCAG”, for which the binding signal is 3740 fluorescence intensity (a.u.).

These data come from PMC7819943, “Rice protein-binding microarrays: a tool to detect cis-acting elements near promoter regions in rice”.
